In this assay the target is mGluR2 (metabotropic glutamate receptor 2) with a Flag tag (UniProt Q14416). The assay is described as follows: co-IP.

By UniProt entry, the sequences of proteins in these tests, tags left out. Residues count along the entry.
UniProt Q14416, residues 19-872: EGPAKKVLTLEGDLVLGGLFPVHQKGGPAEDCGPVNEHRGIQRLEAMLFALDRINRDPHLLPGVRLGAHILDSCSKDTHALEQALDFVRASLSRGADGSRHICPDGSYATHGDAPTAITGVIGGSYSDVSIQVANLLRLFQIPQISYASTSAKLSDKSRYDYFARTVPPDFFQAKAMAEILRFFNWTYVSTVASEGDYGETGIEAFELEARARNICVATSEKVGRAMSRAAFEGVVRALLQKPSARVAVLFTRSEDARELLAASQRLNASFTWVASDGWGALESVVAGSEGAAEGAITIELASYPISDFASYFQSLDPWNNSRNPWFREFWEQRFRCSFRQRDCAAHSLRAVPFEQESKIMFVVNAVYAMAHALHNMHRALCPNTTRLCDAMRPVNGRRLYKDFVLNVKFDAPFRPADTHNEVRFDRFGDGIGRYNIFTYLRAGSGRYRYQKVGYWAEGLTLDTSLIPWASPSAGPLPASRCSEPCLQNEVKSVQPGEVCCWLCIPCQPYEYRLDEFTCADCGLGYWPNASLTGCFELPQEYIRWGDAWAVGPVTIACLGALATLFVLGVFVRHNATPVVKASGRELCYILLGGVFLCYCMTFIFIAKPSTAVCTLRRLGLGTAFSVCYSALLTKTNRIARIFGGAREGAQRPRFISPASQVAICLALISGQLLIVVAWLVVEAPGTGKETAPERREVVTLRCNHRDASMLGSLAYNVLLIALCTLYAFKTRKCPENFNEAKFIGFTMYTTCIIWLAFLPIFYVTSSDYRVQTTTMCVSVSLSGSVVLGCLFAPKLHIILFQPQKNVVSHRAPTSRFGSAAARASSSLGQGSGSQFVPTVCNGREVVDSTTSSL
UniProt P03454, residues 18-565: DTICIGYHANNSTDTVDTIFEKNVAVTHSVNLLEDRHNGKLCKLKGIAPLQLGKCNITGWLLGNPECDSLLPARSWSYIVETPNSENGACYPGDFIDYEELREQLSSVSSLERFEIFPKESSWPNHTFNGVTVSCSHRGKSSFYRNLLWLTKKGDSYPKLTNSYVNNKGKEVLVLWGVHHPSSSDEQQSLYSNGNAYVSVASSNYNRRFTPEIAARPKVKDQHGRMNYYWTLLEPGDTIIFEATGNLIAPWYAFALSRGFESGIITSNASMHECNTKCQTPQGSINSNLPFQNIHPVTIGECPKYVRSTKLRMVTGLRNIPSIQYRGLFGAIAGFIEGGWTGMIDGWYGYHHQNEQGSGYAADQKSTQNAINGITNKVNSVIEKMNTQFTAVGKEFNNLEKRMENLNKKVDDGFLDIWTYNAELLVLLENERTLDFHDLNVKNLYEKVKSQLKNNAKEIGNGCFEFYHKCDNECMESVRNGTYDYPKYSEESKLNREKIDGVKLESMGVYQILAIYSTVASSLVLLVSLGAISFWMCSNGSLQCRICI
UniProt Q12791: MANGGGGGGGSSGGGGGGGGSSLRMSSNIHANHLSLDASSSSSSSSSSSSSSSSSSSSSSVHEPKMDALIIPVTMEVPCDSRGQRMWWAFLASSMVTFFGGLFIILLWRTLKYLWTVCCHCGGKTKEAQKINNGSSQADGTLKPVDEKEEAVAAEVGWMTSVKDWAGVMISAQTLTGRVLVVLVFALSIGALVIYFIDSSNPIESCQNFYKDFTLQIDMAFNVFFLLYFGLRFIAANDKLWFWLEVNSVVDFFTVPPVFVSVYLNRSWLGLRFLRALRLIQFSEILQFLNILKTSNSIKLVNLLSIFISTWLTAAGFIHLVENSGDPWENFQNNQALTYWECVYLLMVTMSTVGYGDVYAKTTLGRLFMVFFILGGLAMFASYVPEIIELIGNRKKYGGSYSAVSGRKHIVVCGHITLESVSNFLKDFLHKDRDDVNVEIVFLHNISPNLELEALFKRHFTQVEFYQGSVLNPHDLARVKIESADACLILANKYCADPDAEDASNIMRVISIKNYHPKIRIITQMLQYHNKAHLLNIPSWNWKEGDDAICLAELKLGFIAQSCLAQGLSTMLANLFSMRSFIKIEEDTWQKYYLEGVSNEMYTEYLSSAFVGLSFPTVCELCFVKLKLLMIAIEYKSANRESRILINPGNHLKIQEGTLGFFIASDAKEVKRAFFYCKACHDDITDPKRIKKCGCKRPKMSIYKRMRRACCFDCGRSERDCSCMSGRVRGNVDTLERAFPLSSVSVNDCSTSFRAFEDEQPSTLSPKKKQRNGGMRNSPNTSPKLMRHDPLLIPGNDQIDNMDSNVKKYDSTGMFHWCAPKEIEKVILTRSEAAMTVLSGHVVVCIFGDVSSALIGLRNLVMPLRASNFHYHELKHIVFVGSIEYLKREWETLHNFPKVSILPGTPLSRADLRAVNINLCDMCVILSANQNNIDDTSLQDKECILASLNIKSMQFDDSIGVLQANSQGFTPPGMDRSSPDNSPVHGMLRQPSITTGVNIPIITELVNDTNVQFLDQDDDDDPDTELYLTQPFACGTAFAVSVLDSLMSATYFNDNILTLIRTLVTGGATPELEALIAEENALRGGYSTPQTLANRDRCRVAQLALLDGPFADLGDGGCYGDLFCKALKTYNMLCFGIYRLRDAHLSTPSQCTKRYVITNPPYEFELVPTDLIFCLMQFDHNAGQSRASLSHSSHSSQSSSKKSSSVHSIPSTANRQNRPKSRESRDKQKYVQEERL

These are yes or no findings as the source states them, for the method shown. Binding seen in cells or lysates may run through a third protein. Some results given as binding are weak or reduced against the parent protein; the word gives no strength.

Turning to “HA of H1N1 virus (A/WSN/1933) with a V5 tag (from UniProt P03454)”, the binding result was “binds”.
As to “KCa1.1–Myc (potassium calcium-activated channel subfamily M alpha 1) (from UniProt Q12791 1-1236)”, the binding result is “binds”.

Values taken from PMC11222159.
